Measurements as given in patent US20140348834A1.
Residue numbers refer to the chain shown, from its start. Results are given in words; binding and its absence hold for the method and conditions named. Some binding calls cover weakened binding; strength is not graded here.

Protein sequences, listed by entry. Tags and fused reporters are not part of them. Lines headed by an entry give the natural chain unless they say otherwise; changes in a name come on top.
UniProt Q16552: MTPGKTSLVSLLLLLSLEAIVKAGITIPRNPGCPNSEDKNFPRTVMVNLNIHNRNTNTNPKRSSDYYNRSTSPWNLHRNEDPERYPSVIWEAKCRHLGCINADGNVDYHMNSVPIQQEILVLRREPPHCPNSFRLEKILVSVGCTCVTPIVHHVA

B1: ML109-1D8 (antibody, V domains shown)
VH: QVQLQQSGAELVRPGASVKLSCKASGYTFSDYEMHWVKQTPVHGLEWIGVIHPGNGGTAYNQKFRDKATLTADKSSTTAYMELSSLTSEDSAVYYCIRFLTYEGYFDYWGQGTTLTVSS
VL: SIVMTQTPKFLLVSAGDRVTITCKASQSVNNDVAWFQHKPGQSPKLLINYASNRYTGVPDRFTGSGYGTDFTFTISTVQSEDLAIYFCQQDYGSPYTFGGGTTLEIKR
B2: ML109-8B12 (antibody, V domains shown)
VH: QVQLKESGPGLVAPSQSLSITCTISGFSLTSYGVHWVRQPPGKGLEWLVVIWSDGTTTYNSALKSRLSITRDNSKSQVFLKMNSLQTDDTAIYYCARDSTWDYYYTMDYWGQGTPVTVSS
VL: DVVMTQTPLSLPVSLGDQASISCRSSQSLVHSNGNTYLHWYLQKPGQSPKLLIYKVSNRFSGVPDRFSGSGSGTDFTLKISRVEAEDLGVYFCSQSTHVYTFGGGTKLEIKR
B3: ML109-10G9 (antibody, V domains shown)
VH: QVQLKESGPALVAPSQSLSFTCTISGFSLSSYGVHWVRQPPGKGLEWLVVIWSDGTTTYNSALKSRLSISKDNSKSQVFLKMNSLQTDDTAMYYCARDGYYIYTMDYWGQGTSVTVSS
VL: DVVMTQTPLSLPVSLGDQASISCRSSQSLVHSNGNTYLHWYLQRPGQSPKLLIYKVSNRFSGVPDRFSGSGSGTDFTLKISRVEAEDLGLYFCSQGTHAPLTFGAGTKLELNR
B4: ML109-5C5 (antibody, V domains shown)
VH: B1 VH with S25L, S30T, M34F, K63N, T77S, A92G, I97T, T114A
VL: NIVMTQTPKFLLVSPGDRVTITCKASQSVSIDVGWFQQKPGQSPKLLIYHASNRYTGVPDRFTGSGYGTDFTFTVNTVQAEDLAVYFCQQDYSSPYTFGGGTKLELKR
B5: ML109-7D7 (antibody, V domains shown)
VH: QVQLQQSGAELVRPGTSVTLSCKASGYRFTDYEIHWIKQTPAQVLEWIGVTDPESGGTLHNPKFDGKATLTADKSSRTAYMELRSLTSEDSAVYYCTRYYKYESFYGMDYWGQGTSVTVSS
VL: QIVLTQSPAIMSAFPGEKVTMTCSASSSISYMCWYQQKPGTSPKRWICDTSKLASGVPVRFSGSGSGTSYSLTINSMETEDAATYYCQQRSSYPWTFGGGTKVEIKR

The binders below were run against cynomolgus monkey IL-17A (cynomolgus monkey) (assay: ELISA of hybridoma supernatants).

binding, binds:
B1, B2, B3, B4, B5

The binders below were run against human IL-17A (human) (UniProt Q16552) (assay: ELISA of hybridoma supernatants).

binding, binds:
B1, B2, B3, B4, B5
